Results as given in PubChem BioAssay AID1439 (NMMLSC, 2008).
The campaign covered roughly 220,000 compounds. About 770 (0.35%) were called active. The inconclusive results got no clear call from the source; some entries with a clear call stand among them for comparison. Cut-off read from the data, not from the text of the source: active = binding response below about 49% or above about 150%; inconclusive = no clear call, values can overlap the other calls; inactive = in between.

The chains behind the UniProt entries cited, without tags or fusion partners.
UniProt P09471, whole entry, looked up: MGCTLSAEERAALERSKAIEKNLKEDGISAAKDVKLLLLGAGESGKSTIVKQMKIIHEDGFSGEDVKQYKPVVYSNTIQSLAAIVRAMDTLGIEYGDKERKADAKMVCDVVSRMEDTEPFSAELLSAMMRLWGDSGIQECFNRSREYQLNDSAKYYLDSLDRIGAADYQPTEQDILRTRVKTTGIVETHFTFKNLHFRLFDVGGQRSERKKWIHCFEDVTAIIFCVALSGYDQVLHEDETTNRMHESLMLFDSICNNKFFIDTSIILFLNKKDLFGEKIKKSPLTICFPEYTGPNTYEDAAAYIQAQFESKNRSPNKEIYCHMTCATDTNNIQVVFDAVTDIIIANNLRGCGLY

The compounds below were run against Guanine nucleotide-binding protein G(o) subunit alpha (Homo sapiens) (UniProt P09471) (assay: RGS7-Galphao binding modulators, primary screen, biochemical, multiplexed bead flow cytometry (AID 1439;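 note: fluorescent Galphao held in activated GDP-AlF4 state binding bead-coupled RGS7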)). Settings: at 10 µM, actives lie on both sides.
With `COC(=O)c1ccccc1NC(=O)/C=C/C(=O)O` the binding response (% of control) was inactive: 96.1%.
`COc1ccc(C(=O)O/N=C(\C)c2cnccn2)cc1` was tested, and the binding response (% of control) was inconclusive: 103%.
In the case of `Cc1c(NC(=O)c2cc3c(=O)n4ccccc4nc3s2)c(=O)n(-c2ccccc2)n1C`, the binding response (% of control) is reported as inconclusive: 79%.
For `CSc1cccc(NC(=O)Nc2ccccc2C(N)=O)c1`, the binding response (% of control) was inconclusive: 102%.
With `Cc1cccc(OCC(=O)Nc2ncn[nH]2)c1C` the binding response (% of control) was inconclusive: 118%.
`Cc1ccc(C(=O)c2cc([N+](=O)[O-])ccc2N2CCOCC2)cc1` was tested, and the binding response (% of control) was inactive: 88.9%.
For `COc1ccc(NC(=O)CC(=O)Nc2ccc(OC)cc2OC)c(OC)c1`, the binding response (% of control) was active: 174% [activator].
With `O=C(NCCc1c[nH]c2ccccc12)c1ccc(-n2cnnn2)cc1` the binding response (% of control) was inactive: 133%.
For `O=C(Nc1cccc2ncccc12)c1ccc(OCc2ccccc2)cc1`, the binding response (% of control) was inactive: 95.7%.
In the case of `COc1ccc(C2/C=C\CN(S(=O)(=O)c3ccc(C)cc3)[C@H](Cc3ccccc3)C(=O)N2Cc2ccc(F)cc2)cc1` (stereo partly specified), the binding response (% of control) is reported as inconclusive: 112%.
`CCn1c(C)nc2cc(C(=O)NNC(=S)Nc3ccc(Cl)cc3)ccc21` was tested, and the binding response (% of control) was inconclusive: 99.3%.
For `O=C(Nc1c(C(=O)O)[nH]c2ccccc12)c1cccc(C(F)(F)F)c1`, the binding response (% of control) was inconclusive: 106%.
For `COC(C[C@@H]1O[C@@H]1[C@H](O)COCc1ccccc1)OC`, the binding response (% of control) was inconclusive: 100%.
With `O=C1Nc2ccc(Br)cc2/C1=C/C(=O)c1ccc2c(c1)OCO2` the binding response (% of control) was inconclusive: 83.1%.
With `N#Cc1c(C(F)(F)F)cc(-c2cccs2)nc1SCC(=O)O` the binding response (% of control) was inconclusive: 56.9%.
For `COc1ccc2c(c1)c(C(=O)O)c(C)n2-c1ccccc1`, the binding response (% of control) was inconclusive: 79.5%.
For `CCCn1cc(S(=O)(=O)CC(=O)Nc2ccc(OC)cc2OC)c2ccccc21`, the binding response (% of control) was inactive: 91.5%.
`O=C(COC(=O)/C=C/c1cccs1)Nc1cccc(S(=O)(=O)N2CCOCC2)c1` was tested, and the binding response (% of control) was inconclusive: 75.6%.
`COC(=O)c1ccc(C23CC4(C2)[C@H](CN(CC2CCCCC2)[C@@H]4c2ccccc2)C3c2ccccc2)cc1` (stereo partly specified) was tested, and the binding response (% of control) was inconclusive: 82.6%.
`CCN(CC)c1ccc(/C=c2\sc3nnc(-c4ccccc4Cl)n3c2=O)cc1` was tested, and the binding response (% of control) was inactive: 125%.
`COC(=O)c1cc(C(=O)c2cc(Cl)ccc2O)coc1=N` was tested, and the binding response (% of control) was inactive: 112%.
With `COC(=O)CSc1nc2cc3c(cc2cc1C)OCO3` the binding response (% of control) was inactive: 96.8%.
In the case of `CCOC1(c2ccccc2)CC1C(=O)N/N=C/c1cccc([N+](=O)[O-])c1` (stereo unspecified), the binding response (% of control) is reported as inconclusive: 48.7%.
For `O=c1c2c(nc3cc(-c4ccc(Br)cc4)[nH]n13)CCCC2`, the binding response (% of control) was inactive: 96.7%.
In the case of `COc1cc(/C=N/NC(N)=O)cc([N+](=O)[O-])c1O`, the binding response (% of control) is reported as inconclusive: 95.9%.
In the case of `S=c1[nH]c(-c2ccccc2)cn1/N=C/c1cccc2ccccc12`, the binding response (% of control) is reported as inactive: 101%.
In the case of `COc1ccc([N+](=O)[O-])cc1NC(=O)COC(=O)c1ccc(O)cc1`, the binding response (% of control) is reported as inconclusive: 72%.
`Cc1cccc(C(CC(=O)O)NC(=O)C(F)(F)F)c1` (stereo unspecified) was tested, and the binding response (% of control) was inconclusive: 113%.
In the case of `CC1=NN(c2cccc(C(=O)O)c2)C(=O)/C1=C\C=C/c1ccccc1`, the binding response (% of control) is reported as inactive: 102%.
For `Cc1cc(C)n(C(C[N+](=O)[O-])c2ccc(Cl)cc2)n1` (stereo unspecified), the binding response (% of control) was inactive: 92.8%.
In the case of `O=C1NC[C@H](c2ccccc2)N(CCc2cccc3ccccc23)C1=O`, the binding response (% of control) is reported as inconclusive: 94%.
For `Cc1cc(C)cc(OCC(=O)OCC(=O)N2CC(=O)Nc3ccccc32)c1`, the binding response (% of control) was inconclusive: 148%.
For `CCC(C)NC(=O)CN(c1cc(Cl)cc(Cl)c1)S(C)(=O)=O` (stereo unspecified), the binding response (% of control) was inactive: 101%.
For `Cc1ccc(N2C(=O)CC3(CCCC3)CC2=O)cc1`, the binding response (% of control) was inconclusive: 44.4%.
In the case of `COc1cc(/C=N/NC(=O)C2COc3ccccc3O2)ccc1O` (stereo unspecified), the binding response (% of control) is reported as inconclusive: 67%.
For `CCc1nnc(NC(=O)c2cccc(S(=O)(=O)N(C)c3ccc(OC)cc3)c2)s1`, the binding response (% of control) was inconclusive: 109%.
For `Cc1ccc(NC(=O)C2CCCN2S(=O)(=O)c2ccc3c(c2)n(C)c(=O)c(=O)n3C)cc1` (stereo unspecified), the binding response (% of control) was inconclusive: 84.1%.
With `CCn1c(SCC(=O)Nc2ccccc2)nnc1-c1cccs1` the binding response (% of control) was inconclusive: 93.5%.
`O=C(NC1CCSC1=O)c1cccc(Cl)c1` (stereo unspecified) was tested, and the binding response (% of control) was inconclusive: 109%.
For `Cc1cc2nc(C)n(CCCNC(=O)Nc3ccccc3)c2cc1C`, the binding response (% of control) was active: 180% [activator].
In the case of `Nc1nc(SCC(=O)Nc2cc(S(=O)(=O)N3CCOCC3)ccc2Cl)n[nH]1`, the binding response (% of control) is reported as inconclusive: 95.4%.
`O=C(c1ccc(F)cc1)N1CCN(C(=O)c2ccc([N+](=O)[O-])cc2)CC1` was tested, and the binding response (% of control) was inactive: 105%.
In the case of `COc1ccc(N(C(=O)/C=C/c2ccccc2)C2=CC3CCC(C2)N3C)cc1` (stereo unspecified), the binding response (% of control) is reported as inconclusive: 81.8%.
For `COCCNS(=O)(=O)c1ccc(OCC(=O)OC)c(Cl)c1`, the binding response (% of control) was inactive: 98.3%.
`Cc1cc(=O)oc2cc(OCC(=O)OCC(=O)N3CCC(C)CC3)ccc12` was tested, and the binding response (% of control) was inconclusive: 95.7%.
In the case of `C=CCON/C(CCC)=C1\C(=O)C(C(=O)OC)C(C)(C)CC1=NC` (stereo unspecified), the binding response (% of control) is reported as inactive: 97.8%.
For `CC(=O)NC1=NN(C(C)=O)C2(S1)C(=O)N(CC(C)C)c1ccc(C)cc12` (stereo unspecified), the binding response (% of control) was inconclusive: 226%.
With `CCOC(=O)c1ccc(NC(=O)c2cc(F)c(F)cc2Cl)cc1` the binding response (% of control) was inconclusive: 97.3%.
In the case of `CCOC(=O)c1c[nH]c2c(C(F)(F)F)cccc2c1=O`, the binding response (% of control) is reported as inactive: 87.4%.
For `COc1ccccc1CC(=O)O/N=C(\N)c1ccccn1`, the binding response (% of control) was inconclusive: 39.7%.
`CC1CN(CCCCOc2cccc(Oc3ccccc3)c2)CC(C)O1` (stereo unspecified) was tested, and the binding response (% of control) was inconclusive: 107%.
With `CCCN(CCC)C(=O)CSc1nc2ccccc2c(=O)n1C1CCCC1` the binding response (% of control) was inactive: 92.5%.
For `CCOC(=O)/C(C#N)=C/N=c1ccc(C)cn1C`, the binding response (% of control) was inconclusive: 24%.
With `O=C(c1ccc(CSc2ccc(Cl)cc2)cc1)N1CCCC1` the binding response (% of control) was inconclusive: 109%.
With `CC1(C)CC(NC(=O)c2ccncc2)CC(C)(C)N1O` the binding response (% of control) was inconclusive: 114%.
`Cc1ccc2nc(NC(=O)C3CCCN(S(=O)(=O)c4cccc5nonc45)C3)sc2c1` (stereo unspecified) was tested, and the binding response (% of control) was inconclusive: 94.6%.
For `Cc1ccc(F)cc1NC(=O)C1CC(=O)N(CCc2ccccc2)C1` (stereo unspecified), the binding response (% of control) was inconclusive: 112%.
For `N#CCCN(CCC#N)S(=O)(=O)c1ccc(C(=O)Nc2nc(-c3ccccc3)c(C(=O)c3ccccc3)s2)cc1`, the binding response (% of control) was inconclusive: 114%.
`CC(C)NC(=S)N=Nc1c(O)[nH]c2ccc([N+](=O)[O-])cc12` was tested, and the binding response (% of control) was inconclusive: 91.1%.
In the case of `C#CCN(C(=O)CC1C(=O)NCCN1C/C=C/c1ccccc1)C1CCCCC1` (stereo unspecified), the binding response (% of control) is reported as inactive: 105%.
With `Cc1ccc(-n2c(SCCN)nnc2-c2cccc(C)c2)cc1` the binding response (% of control) was inconclusive: 148%.
With `Cc1cc(NC(=O)c2ccccc2F)n(C(C)(C)C)n1` the binding response (% of control) was inconclusive: 128%.
For `Nc1nc(Cl)cc(Oc2ccccc2F)n1`, the binding response (% of control) was inconclusive: 105%.
In the case of `COc1ccc(NC(=O)C2CCCN(S(=O)(=O)c3cccnc3)C2)cc1OC` (stereo unspecified), the binding response (% of control) is reported as inconclusive: 79.5%.
`COc1cccc(OC)c1C(=O)Nc1nc(COc2ccccc2)cs1` was tested, and the binding response (% of control) was inconclusive: 157%.
With `O=C(CSc1ccc(F)cc1)Nc1ccc(C2SCCS2)cc1` the binding response (% of control) was inconclusive: 778%.
For `COc1ccc2nc(Cl)cc(Cl)c2c1`, the binding response (% of control) was inconclusive: 70.1%.
With `O=C(Nc1ccccc1N1CCOCC1)c1ccc2nc[nH]c2c1` the binding response (% of control) was inactive: 103%.
`NC(=O)C1CCN(CC(=O)Nc2cccnc2Cl)CC1` was tested, and the binding response (% of control) was inactive: 99.4%.
In the case of `COc1ccccc1/C=C/C=N/n1c(-c2ccc(Cl)cc2)n[nH]c1=S`, the binding response (% of control) is reported as inconclusive: 914%.
For `O=C(Cc1c[nH]c2ccccc12)Nc1ccc(N2CCOCC2)cc1`, the binding response (% of control) was inactive: 101%.
With `COc1ccc(/C=C/C(=O)O)cc1S(=O)(=O)NCC1CCCO1` (stereo unspecified) the binding response (% of control) was inconclusive: 110%.
For `Clc1nc2nc3n(c2nc1Cl)CCC3`, the binding response (% of control) was inconclusive: -107%.
`O=C(NCc1ccncc1)C(=O)N/N=C/c1ccc(OCc2ccccc2)cc1` was tested, and the binding response (% of control) was inconclusive: 106%.
With `COc1ccc(/C=C2\SC(=S)N(CCCC(=O)Nc3ccc(O)cc3)C2=O)cc1` the binding response (% of control) was inconclusive: 132%.
In the case of `CCCOc1ccc(/C=N/NC(=O)CSc2ccccn2)cc1OC`, the binding response (% of control) is reported as inconclusive: 103%.
In the case of `CCNc1nn2ccccc2c1/C=C(\C#N)C(=O)OCC`, the binding response (% of control) is reported as inconclusive: 74.4%.
In the case of `COCCN=C1Sc2nc3cc4c(cc3cc2CN1CC1CCCO1)OCO4` (stereo unspecified), the binding response (% of control) is reported as inactive: 97.6%.
In the case of `Cc1ccc(NC(=O)Cc2ncon2)cc1Cl`, the binding response (% of control) is reported as inconclusive: 114%.
For `O=C(Cn1cnc2scc(-c3ccc(Br)cc3)c2c1=O)N1CCOCC1`, the binding response (% of control) was inactive: 106%.
For `Cc1cc(C)c(S(=O)(=O)NCC2CCC(C(=O)NCc3ccccn3)CC2)c(C)c1` (stereo unspecified), the binding response (% of control) was inactive: 100%.
With `O=C1CCC(=O)N(O)CCCCCNC(=O)CCC(=O)N(O)CCCCNC(=O)CCC(=O)N(O)CCCCCN1` the binding response (% of control) was inconclusive: 15.5%.
With `COC(=O)C(C)Oc1ccc(Oc2nc(Cl)ccc2Cl)cc1` (stereo unspecified) the binding response (% of control) was inconclusive: 96.2%.
`CCN(CC)CCNC(=O)c1ccc(NC(=O)c2cn(-c3ccccc3)nc2-c2cccs2)cc1` was tested, and the binding response (% of control) was inconclusive: 95.2%.
With `CC(=O)N1CCN(c2nc(-c3cccs3)nc3ccccc23)CC1` the binding response (% of control) was inconclusive: 98.4%.
With `COc1ccc(-c2n(Cc3ccccc3)c3ccccc3[n+]2Cc2ccccc2)cc1` the binding response (% of control) was inactive: 100%.
`CCCCn1c(N)c(N(CCC(C)C)C(=O)COC(=O)c2ccccc2)c(=O)[nH]c1=O` was tested, and the binding response (% of control) was inconclusive: 76.2%.
In the case of `NC(=NC(=O)c1ccccc1)N1CCN(C(c2ccccc2)c2ccccc2)CC1`, the binding response (% of control) is reported as inconclusive: 109%.
For `CC(C)CC(NC(N)=O)C(=O)Nc1ccc(Cl)c(Cl)c1` (stereo unspecified), the binding response (% of control) was inconclusive: 110%.
In the case of `COc1ccc(C2CN=NC2C(=O)c2ccccc2)cc1` (stereo unspecified), the binding response (% of control) is reported as inconclusive: 94.4%.
In the case of `O=C(CN1CCN(Cc2ccccc2Cl)CC1)N/N=C/c1ccccn1`, the binding response (% of control) is reported as inconclusive: 51.6%.
